Results reported in article PMC10940650.
No constants are given. Whether binding was seen depends on the method and setting. Binding seen in cells or lysates may run through a third protein. Some results given as binding are weak or reduced against the parent protein; the word gives no strength.

By UniProt entry, the sequences of proteins in these tests, tags left out.
UniProt Q13283: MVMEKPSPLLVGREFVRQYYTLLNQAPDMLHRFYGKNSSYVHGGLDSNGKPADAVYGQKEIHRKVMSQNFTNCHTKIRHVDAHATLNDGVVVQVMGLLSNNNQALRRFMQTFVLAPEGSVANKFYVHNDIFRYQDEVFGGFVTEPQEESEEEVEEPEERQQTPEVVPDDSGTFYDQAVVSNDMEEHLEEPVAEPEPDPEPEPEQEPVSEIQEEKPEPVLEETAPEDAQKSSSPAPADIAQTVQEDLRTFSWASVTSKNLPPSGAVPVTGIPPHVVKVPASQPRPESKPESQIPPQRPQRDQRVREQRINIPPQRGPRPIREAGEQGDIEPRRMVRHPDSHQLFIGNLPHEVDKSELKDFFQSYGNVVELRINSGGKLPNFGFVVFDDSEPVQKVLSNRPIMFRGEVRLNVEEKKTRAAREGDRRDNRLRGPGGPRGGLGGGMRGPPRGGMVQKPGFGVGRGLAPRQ

Tests used:
[1] = molecular target: T1, NUPR1 (Nuclear Protein 1) (human (endogenous in MiaPaCa-2)) (UniProt O60356); test: proximity ligation; Duolink In Situ on fixed, permeabilised MiaPaCa-2 cells; rabbit anti-NUPR1 and mouse anti-G3BP1; control cells or arsenate 0.5 mM for 1 h
T1 sequence: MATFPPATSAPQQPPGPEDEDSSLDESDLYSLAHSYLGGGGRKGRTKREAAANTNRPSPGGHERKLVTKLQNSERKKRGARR

[2] = molecular target: T1, NUPR1 (Nuclear Protein 1) (human (endogenous in MiaPaCa-2)); test: proximity ligation; Duolink In Situ on fixed, permeabilised MiaPaCa-2 cells; rabbit anti-NUPR1 and mouse anti-G3BP1; cells treated with ZZW-115 at 6 µM for 6 h, with or without arsenate 0.5 mM for 1 h

- binding [1]: binds
- binding [2]: binds weakly
Substance: G3BP1 (from UniProt Q13283 1-466)
